Laboratory results from PMC8128747.
These are yes or no findings as the source states them, for the method shown. In cells and extracts the contact can be indirect. Some entries that bind do so weakly or less than the wild type.

The chains behind the UniProt entries cited, without tags or fusion partners.
UniProt P63074: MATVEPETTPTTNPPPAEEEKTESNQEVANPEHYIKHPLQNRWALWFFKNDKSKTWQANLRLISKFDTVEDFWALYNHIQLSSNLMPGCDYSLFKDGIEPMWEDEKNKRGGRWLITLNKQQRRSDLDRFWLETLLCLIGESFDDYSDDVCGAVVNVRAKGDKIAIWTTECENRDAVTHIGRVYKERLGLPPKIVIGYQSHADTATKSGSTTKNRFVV
UniProt O55242: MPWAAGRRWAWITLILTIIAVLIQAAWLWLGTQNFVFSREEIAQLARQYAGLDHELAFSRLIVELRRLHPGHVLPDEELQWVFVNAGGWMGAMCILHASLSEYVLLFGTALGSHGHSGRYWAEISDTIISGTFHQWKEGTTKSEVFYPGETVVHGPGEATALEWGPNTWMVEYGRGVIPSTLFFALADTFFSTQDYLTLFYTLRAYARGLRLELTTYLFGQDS
UniProt Q62622: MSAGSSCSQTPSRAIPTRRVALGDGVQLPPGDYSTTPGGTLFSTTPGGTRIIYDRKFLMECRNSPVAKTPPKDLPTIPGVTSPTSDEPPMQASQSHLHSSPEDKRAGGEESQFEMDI
UniProt Q9CQS8: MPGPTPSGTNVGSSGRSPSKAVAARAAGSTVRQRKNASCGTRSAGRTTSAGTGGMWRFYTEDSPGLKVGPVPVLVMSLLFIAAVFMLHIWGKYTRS
UniProt P01100: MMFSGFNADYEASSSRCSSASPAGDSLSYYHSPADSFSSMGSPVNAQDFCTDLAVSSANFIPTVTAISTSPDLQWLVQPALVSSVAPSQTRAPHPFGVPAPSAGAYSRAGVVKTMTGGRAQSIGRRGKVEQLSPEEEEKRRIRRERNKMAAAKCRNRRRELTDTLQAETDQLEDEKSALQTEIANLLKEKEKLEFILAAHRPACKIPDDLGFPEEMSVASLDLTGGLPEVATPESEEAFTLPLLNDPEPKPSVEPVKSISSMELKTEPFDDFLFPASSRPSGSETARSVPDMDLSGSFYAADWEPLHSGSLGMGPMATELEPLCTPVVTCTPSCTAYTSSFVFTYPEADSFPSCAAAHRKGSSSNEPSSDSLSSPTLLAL

Tests used:
[1] = target: eukaryotic initiation factor 4E, endogenous in rat DRG (rat (endogenous in DRG)) (UniProt P63074); experiment: co-IP; lysate of rat L4-L6 DRGs, sham or SNI (day 14), pooled from 2 animals; protein-A/G agarose beads, 4 °C; band intensity normalized to eIF4E
Sigma-1R-EYFP = Sigma-1R-EYFP (UniProt O55242); experiment: co-IP; N2a cells overexpressing HA-tagged Sec61β and Sig-1R-EYFP; immunoprecipitation with GFP antibody
[2] = target: Sig-1R-GFP (in HEK cells) (UniProt O55242); experiment: co-IP; HEK cells co-expressing cFOS-Myc/DDK and Sig-1R-GFP; IP lysis buffer (50 mM Tris pH 7.4, 150 mM NaCl, 1% Nonidet P40), protein-A/G agarose beads, 4 °C; precipitating antibody not told
[3] = target: Sig-1R-GFP (in the cells of Supplementary Figure S2) (UniProt O55242); experiment: co-IP; Supplementary Figure S2: endogenous Sec61β with expressed Sig-1R-GFP; cell line and antibodies not given

Question: How did the binding [1] turn out when “4E-BP1, endogenous in rat DRG (from UniProt Q62622 1-117)” was run?
Answer: The binding was “binds”.

Question: HA-Sec61β (from UniProt Q9CQS8 1-96) was tested. Which binding (Sigma-1R-EYFP) did it give?
Answer: Its binding is “binds”.

Question: Which binding [2] does the source give for “cFOS-Myc/DDK (from UniProt P01100 1-380)” here?
Answer: The binding was “binds”.

Question: With “endogenous Sec61β (from UniProt Q9CQS8 1-96)” as the substance, how does the binding [3] read?
Answer: The binding was “binds”.
